# According to the supplement of paper PMC8728848:
# This is one part of the list.
# B1: GroEL (Clostridium difficile), Q18CT5 (protein)
# chain: MAKEIKFSEETRRALEAGVNKLADTVKVTLGPKGRNVILDKKFGSPLITNDGVTIAKEIELEDRFENMGAQLVKEVATKTNDVAGDGTTTATVLAQAIIREGLKNVTAGANPILLRKGIQKAVTVAVEELKNQSRIVETQEAISQVASISAGDEEVGKLIAEAMEIVGKDGVITVEESQTMNTELDAVEGMQFDRGFVSAYMVTDVDKMEAVLNDPYILITDKKISNIQELLPVLEQIVQQGKKLLIIAEDVEGEALSTLVVNKLRGTFDVVAVKAPGFGDRRKEMLQDIAILTGAQVISEELGYDLKEADLSMLGRASSVKVTKESTTIVDGSGDKKAIEDRVTQIKHQVEQTTSDFDREKLMERLAKLAGGVAVVKVGAATEVELKERKLRIEDALNATRAAVEEGIVAGGGTAFVSVIPAIGTLIESLEGEVKLGAQIVKKALEEPLRQIAINAGLEGAVIVQNVVNSEAETGFDALNEKYVNMIEAGIVDPTKVSRSALQNAASIASTFLTTEAAVADLPEKEDAGMPGMGGGMPGMM
# Columns and labels:
# Experiment in all cases: glycan array binding signal (z-score within array); higher = stronger binding
# Conditions in all cases: glycan notation: IUPAC condensed, linker removed
# [1] = target: GlcNAc(b1-3)Gal(b1-4)GlcNAc(b1-3)GalNAc
# Outline: (§1)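 Glycan array data came from 3228 arrays in the Consortium for Functional Glycomics database, and only arrays with an available protein sequence were kept. Glycan names were put into IUPAC-condensed notation, and columns mapping to the same glycan were averaged. The binding signal is a within-array Z-score, averaged across arrays of one protein sequence run at different concentrations or buffers and across linkers. A negative Z-score can be read as non-binding.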
# [2] = target: GlcNAc(b1-3)Gal(b1-4)GlcNAc(b1-3)[GlcNAc(b1-3)Gal(b1-4)GlcNAc(b1-3)]GalNAc
# Outline: as §1
# [3] = target: GlcNAc(b1-3)Gal(b1-4)GlcNAc(b1-6)[Gal(b1-3)]GalNAc
# Outline: as §1
# [4] = target: GlcNAc(b1-3)Gal(b1-4)GlcNAc(b1-6)[GlcNAc(b1-3)Gal(b1-3)]GalNAc
# Outline: as §1
# [5] = target: GlcNAc(b1-3)Gal(b1-4)GlcNAc(b1-6)[GlcNAc(b1-3)]Gal(b1-4)GlcNAc
# Outline: as §1
# [6] = target: GlcNAc(b1-3)GalNAc
# Outline: as §1
# [7] = target: GlcNAc(b1-3)Man
# Outline: as §1
# [8] = target: GlcNAc(b1-3)[GlcNAc(b1-4)][GlcNAc(b1-6)]GlcNAc
# Outline: as §1
# [9] = target: GlcNAc(b1-3)[GlcNAc(b1-6)]Gal(b1-4)GlcNAc
# Outline: as §1
# [10] = target: GlcNAc(b1-3)[GlcNAc(b1-6)]GalNAc
# Outline: as §1
# [11] = target: GlcNAc(b1-4)Gal(b1-4)GlcNAc
# Outline: as §1
# [12] = target: GlcNAc(b1-4)GlcNAc
# Outline: as §1
# [13] = target: GlcNAc(b1-4)GlcNAc(b1-4)GlcNAc
# Outline: as §1
# [14] = target: GlcNAc(b1-4)GlcNAc(b1-4)GlcNAc(b1-4)GlcNAc(b1-4)GlcNAc
# Outline: as §1
# [15] = target: GlcNAc(b1-4)GlcNAc(b1-4)GlcNAc(b1-4)GlcNAc(b1-4)GlcNAc(b1-4)GlcNAc
# Outline: as §1
# [16] = target: GlcNAc(b1-4)[GlcNAc(b1-6)]GalNAc
# Outline: as §1
# [17] = target: GlcNAc(b1-6)Gal(b1-4)GlcNAc
# Outline: as §1
# [18] = target: GlcNAc(b1-6)GalNAc
# Outline: as §1
# [19] = target: GlcNAc6S(b1-3)Gal(b1-4)GlcNAc
# Outline: as §1
# [20] = target: Kdn(a2-3)Gal(b1-3)GalNAc
# Outline: as §1
# [21] = target: Kdn(a2-3)Gal(b1-3)GlcNAc
# Outline: as §1
# [22] = target: Kdn(a2-3)Gal(b1-4)Glc
# Outline: as §1
# [23] = target: Kdn(a2-3)Gal(b1-4)GlcNAc
# Outline: as §1
# [24] = target: Kdn(a2-3)Gal(b1-4)[Fuc(a1-3)]GlcNAc
# Outline: as §1
# [25] = target: Kdn(a2-6)Gal(b1-4)GlcNAc
# Outline: as §1
# [26] = target: Man(a1-2)Man(a1-2)Man(a1-3)Man
# Outline: as §1
# [27] = target: Man(a1-2)Man(a1-2)Man(a1-6)[Man(a1-3)]Man
# Outline: as §1
# [28] = target: Man(a1-2)Man(a1-3)Man
# Outline: as §1
# [29] = target: Man(a1-2)Man(a1-3)[Man(a1-2)Man(a1-6)]Man
# Outline: as §1
# [30] = target: Man(a1-2)Man(a1-3)[Man(a1-2)Man(a1-6)]Man(a1-6)[Man(a1-2)Man(a1-2)Man(a1-3)]Man
# Outline: as §1
binder,measurement,setting,value
B1,glycan array binding signal (z-score),[1],-1.82
same,glycan array binding signal (z-score),[2],1.1
same,glycan array binding signal (z-score),[3],-1.27
same,glycan array binding signal (z-score),[4],-0.419
same,glycan array binding signal (z-score),[5],0.065
same,glycan array binding signal (z-score),[6],-0.166
same,glycan array binding signal (z-score),[7],-0.312
same,glycan array binding signal (z-score),[8],-0.786
same,glycan array binding signal (z-score),[9],-0.466
same,glycan array binding signal (z-score),[10],-0.491
same,glycan array binding signal (z-score),[11],0.332
same,glycan array binding signal (z-score),[12],-0.465
same,glycan array binding signal (z-score),[13],-1.06
same,glycan array binding signal (z-score),[14],0.295
same,glycan array binding signal (z-score),[15],-1.09
same,glycan array binding signal (z-score),[16],-2.7
same,glycan array binding signal (z-score),[17],-1.06
same,glycan array binding signal (z-score),[18],-0.22
same,glycan array binding signal (z-score),[19],1.61
same,glycan array binding signal (z-score),[20],-0.189
same,glycan array binding signal (z-score),[21],-0.759
same,glycan array binding signal (z-score),[22],-0.071
same,glycan array binding signal (z-score),[23],0.379
same,glycan array binding signal (z-score),[24],1.35
same,glycan array binding signal (z-score),[25],-0.518
same,glycan array binding signal (z-score),[26],2.16
same,glycan array binding signal (z-score),[27],-0.387
same,glycan array binding signal (z-score),[28],-0.993
same,glycan array binding signal (z-score),[29],-1.49
same,glycan array binding signal (z-score),[30],-0.328
